The supplement of paper PMC10849652
Some of the results follow.

Chains of the proteins cited; added tags and fusions are not shown. Lines headed by an entry give the natural chain unless they say otherwise; changes in a name come on top.
UniProt Q7Z698: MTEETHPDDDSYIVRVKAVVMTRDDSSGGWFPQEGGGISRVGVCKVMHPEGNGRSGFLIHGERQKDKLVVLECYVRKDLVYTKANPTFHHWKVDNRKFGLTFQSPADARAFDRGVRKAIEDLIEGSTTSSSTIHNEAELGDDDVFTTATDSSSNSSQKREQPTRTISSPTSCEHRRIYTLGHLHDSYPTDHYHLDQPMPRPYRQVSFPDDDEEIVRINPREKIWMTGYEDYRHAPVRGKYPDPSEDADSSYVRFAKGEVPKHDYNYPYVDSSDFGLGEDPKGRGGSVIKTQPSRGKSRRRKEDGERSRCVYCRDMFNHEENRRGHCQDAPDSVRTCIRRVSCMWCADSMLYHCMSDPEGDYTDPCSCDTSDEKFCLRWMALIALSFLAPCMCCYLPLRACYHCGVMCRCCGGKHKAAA
UniProt Q9C0H9: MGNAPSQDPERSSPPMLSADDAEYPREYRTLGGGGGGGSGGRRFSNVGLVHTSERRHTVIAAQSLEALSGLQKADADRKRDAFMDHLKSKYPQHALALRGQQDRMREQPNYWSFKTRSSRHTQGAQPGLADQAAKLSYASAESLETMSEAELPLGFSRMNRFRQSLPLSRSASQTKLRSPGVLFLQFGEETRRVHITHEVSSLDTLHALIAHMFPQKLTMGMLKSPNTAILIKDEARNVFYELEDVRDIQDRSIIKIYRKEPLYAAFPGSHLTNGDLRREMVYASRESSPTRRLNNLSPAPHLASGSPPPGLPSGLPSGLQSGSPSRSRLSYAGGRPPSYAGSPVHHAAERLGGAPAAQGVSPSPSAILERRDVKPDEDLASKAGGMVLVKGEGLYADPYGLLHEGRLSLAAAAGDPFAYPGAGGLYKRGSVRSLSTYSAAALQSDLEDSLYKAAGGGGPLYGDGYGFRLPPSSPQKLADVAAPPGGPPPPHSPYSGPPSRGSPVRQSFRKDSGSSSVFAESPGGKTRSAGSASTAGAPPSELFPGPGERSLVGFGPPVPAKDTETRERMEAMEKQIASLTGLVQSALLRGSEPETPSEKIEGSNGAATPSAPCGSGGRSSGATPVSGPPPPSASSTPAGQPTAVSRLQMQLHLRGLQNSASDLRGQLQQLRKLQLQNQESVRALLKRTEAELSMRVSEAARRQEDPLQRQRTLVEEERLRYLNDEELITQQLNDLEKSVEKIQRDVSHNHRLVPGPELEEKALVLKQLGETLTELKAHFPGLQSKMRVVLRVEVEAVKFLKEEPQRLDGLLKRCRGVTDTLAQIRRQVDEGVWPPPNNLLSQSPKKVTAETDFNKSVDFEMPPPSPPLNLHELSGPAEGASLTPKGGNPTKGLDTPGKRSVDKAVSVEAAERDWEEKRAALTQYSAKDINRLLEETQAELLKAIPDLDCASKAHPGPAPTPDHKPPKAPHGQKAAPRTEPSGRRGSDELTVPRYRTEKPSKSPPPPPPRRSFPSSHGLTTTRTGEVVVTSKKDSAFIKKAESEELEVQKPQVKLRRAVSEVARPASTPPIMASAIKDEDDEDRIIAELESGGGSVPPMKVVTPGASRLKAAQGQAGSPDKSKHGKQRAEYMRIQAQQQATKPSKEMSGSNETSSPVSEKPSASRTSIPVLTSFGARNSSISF
UniProt Q9P246, whole entry, looked up: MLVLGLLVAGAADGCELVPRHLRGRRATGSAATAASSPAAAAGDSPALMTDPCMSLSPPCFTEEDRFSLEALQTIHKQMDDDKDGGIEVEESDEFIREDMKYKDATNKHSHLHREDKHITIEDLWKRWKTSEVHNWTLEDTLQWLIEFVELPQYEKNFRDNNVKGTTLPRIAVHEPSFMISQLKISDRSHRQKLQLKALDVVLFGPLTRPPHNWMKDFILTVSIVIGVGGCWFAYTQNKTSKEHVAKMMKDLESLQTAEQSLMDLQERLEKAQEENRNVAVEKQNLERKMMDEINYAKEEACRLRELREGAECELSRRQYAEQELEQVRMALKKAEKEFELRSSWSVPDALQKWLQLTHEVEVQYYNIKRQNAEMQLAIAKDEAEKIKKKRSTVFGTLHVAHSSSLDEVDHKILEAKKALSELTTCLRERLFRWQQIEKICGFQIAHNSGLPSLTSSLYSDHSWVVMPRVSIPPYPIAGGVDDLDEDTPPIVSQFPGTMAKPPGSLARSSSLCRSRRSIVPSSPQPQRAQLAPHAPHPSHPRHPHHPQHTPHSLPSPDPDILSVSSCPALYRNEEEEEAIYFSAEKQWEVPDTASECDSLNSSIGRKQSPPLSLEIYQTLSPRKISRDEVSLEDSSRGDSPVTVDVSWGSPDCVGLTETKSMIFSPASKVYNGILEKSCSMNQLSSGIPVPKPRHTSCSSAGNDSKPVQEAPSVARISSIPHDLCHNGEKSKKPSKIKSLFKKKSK
UniProt Q9Y365: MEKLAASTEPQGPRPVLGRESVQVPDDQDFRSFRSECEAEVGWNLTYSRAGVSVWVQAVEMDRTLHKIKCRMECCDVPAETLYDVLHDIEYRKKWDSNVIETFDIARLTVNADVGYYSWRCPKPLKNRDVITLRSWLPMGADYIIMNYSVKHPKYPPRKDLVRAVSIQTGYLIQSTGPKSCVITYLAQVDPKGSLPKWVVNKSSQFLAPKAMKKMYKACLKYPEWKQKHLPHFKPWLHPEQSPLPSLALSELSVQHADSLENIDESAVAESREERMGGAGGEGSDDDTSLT
UniProt Q9Y6N5: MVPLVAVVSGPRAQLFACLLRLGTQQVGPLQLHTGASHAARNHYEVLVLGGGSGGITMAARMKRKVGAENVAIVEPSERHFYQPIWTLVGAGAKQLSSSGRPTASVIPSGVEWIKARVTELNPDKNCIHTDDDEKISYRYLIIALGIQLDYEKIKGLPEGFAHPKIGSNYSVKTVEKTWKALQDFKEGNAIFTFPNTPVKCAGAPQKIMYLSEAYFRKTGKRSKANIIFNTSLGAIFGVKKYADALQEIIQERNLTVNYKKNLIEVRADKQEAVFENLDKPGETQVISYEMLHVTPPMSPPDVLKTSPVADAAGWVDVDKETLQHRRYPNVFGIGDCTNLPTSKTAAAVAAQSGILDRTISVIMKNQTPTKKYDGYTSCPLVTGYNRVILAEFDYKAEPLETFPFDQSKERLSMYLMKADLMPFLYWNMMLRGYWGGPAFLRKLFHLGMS
UniProt Q9H8P0: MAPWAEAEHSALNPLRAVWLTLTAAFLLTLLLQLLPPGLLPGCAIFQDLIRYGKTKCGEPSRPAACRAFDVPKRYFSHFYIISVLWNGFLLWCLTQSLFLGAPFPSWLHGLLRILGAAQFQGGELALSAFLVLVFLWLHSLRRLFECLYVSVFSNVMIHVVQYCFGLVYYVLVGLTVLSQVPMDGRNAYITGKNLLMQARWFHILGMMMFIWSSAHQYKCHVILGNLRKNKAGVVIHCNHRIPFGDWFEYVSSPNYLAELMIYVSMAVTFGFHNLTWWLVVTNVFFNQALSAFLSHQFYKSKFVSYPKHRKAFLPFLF
UniProt Q9NRA0: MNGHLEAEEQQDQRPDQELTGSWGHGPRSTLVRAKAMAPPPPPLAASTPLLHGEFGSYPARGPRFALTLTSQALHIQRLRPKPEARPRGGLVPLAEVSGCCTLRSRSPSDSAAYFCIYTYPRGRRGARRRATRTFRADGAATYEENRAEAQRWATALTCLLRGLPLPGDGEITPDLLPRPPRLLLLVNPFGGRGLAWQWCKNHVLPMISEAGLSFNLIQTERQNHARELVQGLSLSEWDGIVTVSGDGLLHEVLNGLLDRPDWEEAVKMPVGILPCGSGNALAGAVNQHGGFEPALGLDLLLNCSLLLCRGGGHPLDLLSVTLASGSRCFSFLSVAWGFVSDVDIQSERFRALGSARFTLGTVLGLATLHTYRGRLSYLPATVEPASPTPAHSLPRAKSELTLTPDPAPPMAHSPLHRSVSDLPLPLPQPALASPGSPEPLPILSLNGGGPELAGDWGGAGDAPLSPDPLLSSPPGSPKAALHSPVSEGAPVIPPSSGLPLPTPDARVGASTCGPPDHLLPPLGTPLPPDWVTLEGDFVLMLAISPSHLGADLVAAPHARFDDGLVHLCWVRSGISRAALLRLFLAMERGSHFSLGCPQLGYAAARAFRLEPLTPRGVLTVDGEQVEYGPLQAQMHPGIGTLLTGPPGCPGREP
UniProt O43278: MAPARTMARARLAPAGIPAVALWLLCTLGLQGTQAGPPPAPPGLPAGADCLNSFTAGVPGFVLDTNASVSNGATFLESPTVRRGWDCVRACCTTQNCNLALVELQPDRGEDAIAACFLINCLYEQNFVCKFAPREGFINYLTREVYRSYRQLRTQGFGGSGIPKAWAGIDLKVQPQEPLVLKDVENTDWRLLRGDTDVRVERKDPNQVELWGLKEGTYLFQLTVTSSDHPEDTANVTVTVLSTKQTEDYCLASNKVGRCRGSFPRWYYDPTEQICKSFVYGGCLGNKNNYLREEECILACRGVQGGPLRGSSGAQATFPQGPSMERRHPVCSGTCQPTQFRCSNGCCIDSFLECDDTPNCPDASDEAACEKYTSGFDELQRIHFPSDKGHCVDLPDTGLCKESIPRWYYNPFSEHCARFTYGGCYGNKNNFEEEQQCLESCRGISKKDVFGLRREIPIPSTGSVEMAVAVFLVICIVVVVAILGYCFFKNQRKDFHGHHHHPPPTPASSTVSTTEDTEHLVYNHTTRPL
UniProt Q9NUQ6: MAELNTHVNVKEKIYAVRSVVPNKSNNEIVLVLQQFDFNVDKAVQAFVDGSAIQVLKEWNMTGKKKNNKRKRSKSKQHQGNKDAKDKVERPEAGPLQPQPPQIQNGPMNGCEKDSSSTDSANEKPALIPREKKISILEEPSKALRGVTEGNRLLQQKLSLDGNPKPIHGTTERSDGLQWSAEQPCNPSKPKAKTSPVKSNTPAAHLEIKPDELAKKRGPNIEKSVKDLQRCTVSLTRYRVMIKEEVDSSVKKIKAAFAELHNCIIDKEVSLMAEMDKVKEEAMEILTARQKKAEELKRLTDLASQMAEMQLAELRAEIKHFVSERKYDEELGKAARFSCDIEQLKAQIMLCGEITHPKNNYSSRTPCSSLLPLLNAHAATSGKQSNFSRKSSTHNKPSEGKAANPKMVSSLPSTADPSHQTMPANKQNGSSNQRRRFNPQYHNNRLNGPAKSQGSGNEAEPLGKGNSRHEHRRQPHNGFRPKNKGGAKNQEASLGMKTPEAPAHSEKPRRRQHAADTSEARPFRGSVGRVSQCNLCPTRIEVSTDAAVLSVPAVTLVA
UniProt O75177, whole entry, looked up: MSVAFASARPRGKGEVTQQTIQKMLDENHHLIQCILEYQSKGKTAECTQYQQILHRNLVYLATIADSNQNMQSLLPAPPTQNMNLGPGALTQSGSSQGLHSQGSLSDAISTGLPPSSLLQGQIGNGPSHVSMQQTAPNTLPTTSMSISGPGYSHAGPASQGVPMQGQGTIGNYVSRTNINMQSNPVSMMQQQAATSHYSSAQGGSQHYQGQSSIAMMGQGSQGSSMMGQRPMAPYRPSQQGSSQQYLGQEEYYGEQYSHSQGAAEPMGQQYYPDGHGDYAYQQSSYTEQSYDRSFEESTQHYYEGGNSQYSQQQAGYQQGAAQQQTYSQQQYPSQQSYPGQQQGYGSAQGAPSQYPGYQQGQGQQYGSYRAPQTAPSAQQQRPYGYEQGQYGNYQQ
UniProt P43308: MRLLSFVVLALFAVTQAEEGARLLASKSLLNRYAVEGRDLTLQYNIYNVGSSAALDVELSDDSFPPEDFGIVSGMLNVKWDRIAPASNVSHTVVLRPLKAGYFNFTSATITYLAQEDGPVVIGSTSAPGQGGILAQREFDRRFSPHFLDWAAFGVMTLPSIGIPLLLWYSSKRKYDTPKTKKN
UniProt P22528: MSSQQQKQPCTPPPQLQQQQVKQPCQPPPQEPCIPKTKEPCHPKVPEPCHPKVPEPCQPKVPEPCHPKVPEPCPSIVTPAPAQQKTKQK
UniProt Q96EA4: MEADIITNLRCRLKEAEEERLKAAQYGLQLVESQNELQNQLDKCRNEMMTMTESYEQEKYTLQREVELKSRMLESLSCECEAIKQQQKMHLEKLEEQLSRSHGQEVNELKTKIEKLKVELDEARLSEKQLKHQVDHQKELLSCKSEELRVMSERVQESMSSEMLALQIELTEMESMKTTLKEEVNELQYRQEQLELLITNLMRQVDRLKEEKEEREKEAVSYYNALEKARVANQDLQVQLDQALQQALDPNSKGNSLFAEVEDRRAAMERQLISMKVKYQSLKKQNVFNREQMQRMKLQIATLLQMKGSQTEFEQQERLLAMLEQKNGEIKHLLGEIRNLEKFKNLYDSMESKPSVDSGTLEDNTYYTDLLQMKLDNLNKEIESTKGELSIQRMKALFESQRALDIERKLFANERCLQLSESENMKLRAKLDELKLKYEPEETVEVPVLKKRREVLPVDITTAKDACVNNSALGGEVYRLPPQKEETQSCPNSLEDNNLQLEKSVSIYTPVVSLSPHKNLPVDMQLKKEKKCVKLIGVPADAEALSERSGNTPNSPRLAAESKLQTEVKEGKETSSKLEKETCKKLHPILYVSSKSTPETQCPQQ

Columns and labels:
Assay in all cases: log2 fold change, soluble protein after heating vs DMSO (PISA); higher = thermal stabilisation; K562 cells, 10 uM, 30 min; active = over 0.2 and 3.5 SD of the protein, either way, in both replicates (recomputed)
[1] = compound: COc1cc2nc(-c3cc(F)ccc3O)nc(N[C@@H]3CNC[C@H]3C(C)(C)O)c2cc1OC
In short: (§1)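 Quantification of soluble protein used TMTpro 16plex LC-MS/MS, with channel sums equalised. Samples were the supernatant after 21,000xg for 90 min of pooled aliquots from K562 cells (2×10^6 cells/mL) treated with 10 μM compound for 30 min, heated for 3 min over 48°C-58°C, and extracted in PBS with 0.5% NP-40 at 4°C. Values, from duplicates, describe thermal stability against control samples on a log2 fold-change scale.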

gefitinib = compound: COc1cc2ncnc(Nc3ccc(F)c(Cl)c3)c2cc1OCCCN1CCOCC1 [gefitinib]
In short: as §1

lapatinib = compound: CS(=O)(=O)CCNCc1ccc(-c2ccc3ncnc(Nc4ccc(OCc5cccc(F)c5)c(Cl)c4)c3c2)o1 [lapatinib]
In short: as §1

pictilisib = compound: CS(=O)(=O)N1CCN(Cc2cc3nc(-c4cccc5[nH]ncc45)nc(N4CCOCC4)c3s2)CC1 [pictilisib]
In short: as §1

zotarolimus = compound: CO[C@H]1C[C@@H]2CC[C@@H](C)[C@@](O)(O2)C(=O)C(=O)N2CCCC[C@H]2C(=O)O[C@H]([C@H](C)C[C@@H]2CC[C@H](n3cnnn3)[C@H](OC)C2)CC(=O)[C@H](C)/C=C(\C)[C@@H](O)[C@@H](OC)C(=O)[C@H](C)C[C@H](C)/C=C/C=C/C=C/1C [zotarolimus]
In short: as §1

filanesib = compound: CON(C)C(=O)N1N=C(c2cc(F)ccc2F)S[C@@]1(CCCN)c1ccccc1 [filanesib]
In short: as §1

idasanutlin = compound: COc1cc(C(=O)O)ccc1NC(=O)[C@@H]1N[C@@H](CC(C)(C)C)[C@](C#N)(c2ccc(Cl)cc2F)[C@H]1c1cccc(Cl)c1F [idasanutlin]
In short: as §1

alisertib = compound: COc1cc(Nc2ncc3c(n2)-c2ccc(Cl)cc2C(c2c(F)cccc2OC)=NC3)ccc1C(=O)O [alisertib]
In short: as §1

[2] = compound: COc1cccc2cc(-c3nc([C@H]4CC[C@H](C(=O)O)CC4)n4ncnc(N)c34)[nH]c12
In short: as §1

[3] = compound: COC1=CC=C(C=C1)CN2C=CC3=C2C=C(C=C3)C(=O)NO
In short: as §1

Target: STC2 (UniProt O76061)
- log2 fold change [1]: inactive: -0.191
- log2 fold change (gefitinib): inactive: 0.251
- log2 fold change (lapatinib): inactive: 0.046
- log2 fold change (pictilisib): inactive: 0.171

Target: SPATS2 (UniProt Q86XZ4)
- log2 fold change (zotarolimus): inactive: -0.074
- log2 fold change (pictilisib): inactive: -0.053

Target: SPATA33 isoform 2 (UniProt Q96N06)
- log2 fold change (filanesib): inactive: -0.021
- log2 fold change (zotarolimus): inactive: -0.048
- log2 fold change (idasanutlin): inactive: 0.127
- log2 fold change [1]: inactive: 0.012
- log2 fold change (gefitinib): inactive: 0.061
- log2 fold change (lapatinib): inactive: -0.024
- log2 fold change (pictilisib): inactive: 0.04

Target: SPRED2 (UniProt Q7Z698)
- log2 fold change (zotarolimus): inactive: -0.048
- log2 fold change (idasanutlin): inactive: 0.195

Target: SPEN (UniProt Q96T58)
- log2 fold change (zotarolimus): inactive: -0.033
- log2 fold change (idasanutlin): inactive: -0.091
- log2 fold change (alisertib): inactive: 0.537
- log2 fold change [1]: inactive: -0.152
- log2 fold change (gefitinib): inactive: 0.086
- log2 fold change [2]: inactive: -0.043
- log2 fold change (lapatinib): inactive: -0.048
- log2 fold change (pictilisib): inactive: -0.046

Target: SSB (UniProt E7ERC4)
- log2 fold change (alisertib): inactive: 0.494
- log2 fold change [2]: inactive: -0.37
- log2 fold change (pictilisib): inactive: -0.086

Target: STAB1 (UniProt Q9NY15)
- log2 fold change [3]: inactive: -0.29
- log2 fold change (zotarolimus): inactive: 0.061
- log2 fold change (alisertib): inactive: 0.288
- log2 fold change [1]: inactive: 0.245
- log2 fold change [2]: inactive: 0.061
- log2 fold change (lapatinib): inactive: -0.289
- log2 fold change (pictilisib): inactive: -0.029

Target: SPRED1 (UniProt Q7Z699)
- log2 fold change (zotarolimus): inactive: -0.088
- log2 fold change (idasanutlin): inactive: 0.052

Target: SSBP4 (UniProt U3KPY3)
- log2 fold change (alisertib): inactive: 0.023
- log2 fold change [2]: inactive: 0.212

Target: SSX1 (UniProt Q16384)
- log2 fold change (zotarolimus): inactive: 0.151
- log2 fold change (idasanutlin): inactive: 0.324
- log2 fold change [1]: inactive: -0.214
- log2 fold change (lapatinib): inactive: 0.127

Target: SREBF1 isoform 4 (UniProt P36956)
- log2 fold change [3]: inactive: -0.089
- log2 fold change (alisertib): inactive: -0.014
- log2 fold change [2]: inactive: 0.098

Target: SRCIN1 (UniProt Q9C0H9)
- log2 fold change (idasanutlin): inactive: -0.259
- log2 fold change (pictilisib): inactive: 0.125

Target: STIM2 isoform 2 (UniProt Q9P246)
- log2 fold change (idasanutlin): inactive: 0.172
- log2 fold change [1]: inactive: 0.047
- log2 fold change (gefitinib): inactive: -0.135
- log2 fold change (lapatinib): inactive: -0.186

Target: STAR (UniProt P49675)
- log2 fold change (alisertib): inactive: 0.211
- log2 fold change [2]: inactive: -0.159

Target: SRBD1 (UniProt Q8N5C6)
- log2 fold change (pictilisib): inactive: -0.032

Target: SPP2 (UniProt Q13103)
- log2 fold change (filanesib): inactive: 0.101
- log2 fold change (zotarolimus): inactive: -0.115
- log2 fold change (idasanutlin): inactive: 0.089

Target: SRGAP1 (UniProt Q7Z6B7)
- log2 fold change [3]: inactive: 0.019
- log2 fold change (alisertib): inactive: -0.162
- log2 fold change [1]: inactive: 0.054
- log2 fold change (gefitinib): inactive: -0.032
- log2 fold change [2]: inactive: 0.033
- log2 fold change (lapatinib): inactive: -0.056
- log2 fold change (pictilisib): inactive: 0.288

Target: STARD10 (UniProt Q9Y365)
- log2 fold change (filanesib): inactive: 0.089

Target: ST3GAL1 (UniProt Q11201)
- log2 fold change (zotarolimus): inactive: 0.015
- log2 fold change [1]: inactive: 0.074
- log2 fold change (lapatinib): inactive: 0.174

Target: SSH2 (UniProt Q76I76)
- log2 fold change (filanesib): inactive: 0.015

Target: SQOR (UniProt Q9Y6N5)
- log2 fold change (filanesib): inactive: 0.112
- log2 fold change (pictilisib): inactive: 0.145

Target: SRD5A3 (UniProt Q9H8P0)
- log2 fold change [3]: inactive: 0.061
- log2 fold change (idasanutlin): inactive: -0.066
- log2 fold change (alisertib): inactive: -0.14
- log2 fold change (gefitinib): inactive: -0.002
- log2 fold change [2]: inactive: 0.095
- log2 fold change (pictilisib): inactive: 0.022

Target: SSBP3 (UniProt Q9BWW4)
- log2 fold change (filanesib): inactive: 0.024
- log2 fold change (zotarolimus): inactive: -0.044
- log2 fold change (idasanutlin): inactive: 0
- log2 fold change (alisertib): inactive: -0.002
- log2 fold change [1]: inactive: -0.12
- log2 fold change (gefitinib): inactive: 0.003
- log2 fold change [2]: inactive: 0.067
- log2 fold change (lapatinib): inactive: -0.16
- log2 fold change (pictilisib): inactive: 0.046

Target: SS18 (UniProt Q15532)
- log2 fold change (zotarolimus): inactive: 0.284
- log2 fold change (idasanutlin): inactive: -0.156
- log2 fold change (alisertib): inactive: -0.129
- log2 fold change [1]: inactive: -0.357
- log2 fold change (gefitinib): inactive: -0.043
- log2 fold change [2]: inactive: -0.057
- log2 fold change (lapatinib): inactive: -0.05
- log2 fold change (pictilisib): inactive: 0.041

Target: SPHK2 isoform 5 (UniProt Q9NRA0)
- log2 fold change (filanesib): inactive: 0.046
- log2 fold change [1]: inactive: -0.128
- log2 fold change (lapatinib): inactive: 0.012

Target: SPINT1 (UniProt O43278)
- log2 fold change [3]: inactive: -0.02
- log2 fold change (filanesib): inactive: -0.037
- log2 fold change [1]: inactive: 0.11
- log2 fold change (lapatinib): inactive: -0.148
- log2 fold change (pictilisib): inactive: 0.115

Target: SPIRE1 (UniProt Q08AE8)
- log2 fold change [3]: active: -0.509
- log2 fold change (zotarolimus): inactive: -0.051
- log2 fold change (idasanutlin): inactive: -0.023
- log2 fold change (alisertib): inactive: -0.033
- log2 fold change (gefitinib): inactive: -0.013
- log2 fold change [2]: inactive: 0.049
- log2 fold change (pictilisib): inactive: 0.188

Target: SPATS2L isoform 3 (UniProt Q9NUQ6)
- log2 fold change (filanesib): inactive: 0.088
- log2 fold change (zotarolimus): inactive: 0.039
- log2 fold change (idasanutlin): inactive: 0.486

Target: ST3GAL4 isoform 4 (UniProt Q11206)
- log2 fold change (filanesib): inactive: -0.026
- log2 fold change (zotarolimus): inactive: -0.149
- log2 fold change (idasanutlin): inactive: -0.074
- log2 fold change (gefitinib): inactive: -0.012

Target: STK19 (UniProt P49842)
- log2 fold change (idasanutlin): inactive: -0.131

Target: SSBP2 (UniProt P81877)
- log2 fold change (zotarolimus): inactive: -0.015
- log2 fold change (alisertib): inactive: 0.035
- log2 fold change [1]: inactive: -0.022
- log2 fold change [2]: inactive: 0.092
- log2 fold change (lapatinib): inactive: -0.398
- log2 fold change (pictilisib): inactive: -0.015

Target: SPPL3 (UniProt Q8TCT6)
- log2 fold change (alisertib): inactive: 0.085
- log2 fold change [2]: inactive: 0

Target: SS18L1 (UniProt O75177)
- log2 fold change [1]: inactive: 0.05
- log2 fold change (lapatinib): inactive: -0.073

Target: SSR2 (UniProt P43308)
- log2 fold change (alisertib): inactive: 0.141
- log2 fold change (gefitinib): inactive: 0.079
- log2 fold change [2]: inactive: -0.116

Target: SPICE1 (UniProt Q8N0Z3)
- log2 fold change (gefitinib): inactive: 0.095
- log2 fold change (pictilisib): inactive: 0.527

Target: SPRR1B (UniProt P22528)
- log2 fold change (alisertib): inactive: 2.35
- log2 fold change [2]: inactive: 0.011

Target: STIP1 (UniProt H0YGI8)
- log2 fold change (pictilisib): inactive: 0.101

Target: SPDL1 (UniProt Q96EA4)
- log2 fold change (filanesib): inactive: 0.2
- log2 fold change (zotarolimus): inactive: 0.124
- log2 fold change [1]: inactive: 0.042
- log2 fold change (lapatinib): inactive: 0.139
